# Primary screen of a compound library

Each number is a percent effect as filed. The controls that fix the scale are not given in the record; negative values are as filed. This is an unselected part of the compounds tested.

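Assay of Toxoplasma gondii numbers, read through their beta-galactosidase reporter with a colour substrate. Compounds at 50 µM. Higher reads as fewer parasites (inferred from which compounds were picked for retests). Of about 18,000 compounds tested this way, about 170 (0.94%) reached 50% or more in at least one test.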

| compound | percent effect |
|---|---|
| `COc1cc2c(c(OC)c1OC)CC(N)CCC2` (stereo unspecified) | -5.172 |
| `CCn1cc(S(=O)(=O)NCC2CCN(C3CC3)C2)cn1` (stereo unspecified) | 3.955 |
| `NC(=O)c1cnn(-c2ccccn2)c1N` | -18.11 |
| `Cn1nc(N2CCCC2)c(=O)n(C)c1=O` | -11.31 |
| `CCc1cc(N2CCCC(CN)C2)n2nccc2n1` (stereo unspecified) | 8.07 |
| `Cn1cncc1CCNC(=O)c1ccc(C#N)cc1` | -2.258 |
| `NCCc1ncccc1F` | 27.89 |
| `CSCCN(C)C(=O)c1cccc(CN(C)C)c1` | 4.381 |
| `Cc1n[nH]c(NCc2ccsc2)n1` | -3.506 |
| `O=C(Nc1ccncc1)NC1CCS(=O)(=O)C1` (stereo unspecified) | 13.47 |
| `CSc1ncc(CNCC2(O)CNCCOC2)n1C` (stereo unspecified) | 16.45 |
| `CC1COC2(CCN(c3ccncc3Cl)CC2)O1` (stereo unspecified) | -3.618 |
| `Nc1nc(N2CCC(CO)CC2)cc([C@H]2C[C@@H](N)C2)n1` | -7.975 |
| `CCS(=O)(=O)NCCSc1nc2cc(F)c(F)cc2[nH]1` | 13.56 |
| `NC(=O)c1cccc(NC(=O)N2CC(O)(C3CC3)C2)c1` | -12.56 |
| `Cn1ncc(CNC(=O)Nc2ccccn2)c1N` | -11.97 |
| `O=C(CN1CCOCC1)N1CCCC(c2nnc[nH]2)C1` (stereo unspecified) | -8.944 |
| `Nc1nnc2n1CCCC2` | 21.41 |
| `CCOC1CCCN(C(=O)c2ccc(C)[nH]c2=O)C1` (stereo unspecified) | 1.701 |
| `N#CCCCS(=O)(=O)c1ccc(Cl)cn1` | 8.706 |
| `CC(O)CCNC(=O)Nc1ccc(F)cc1F` (stereo unspecified) | 11.73 |
| `Cc1cncc(-c2ccc(S(N)(=O)=O)cc2F)c1` | 15.23 |
| `CN(CC(=O)N1CCOCC1)Cc1ccc(Br)o1` | -6.123 |
| `CC(C)CS(=O)(=O)N1CCC(N)CC1` | 3.246 |
| `Cc1ccc(S(N)(=O)=O)cc1N(C)C` | 4.226 |
| `NS(=O)(=O)N1CCN(CCCc2cccc(F)c2)CC1` | -13.46 |
| `CC(C)COCCN1CCS(=O)(=O)CC(C)C1` (stereo unspecified) | 11.66 |
| `CC(N)c1ccc(Br)cc1OCCCO` (stereo unspecified) | 1.201 |
| `CCCC(C)(C)NC(=O)c1ccc(S(C)(=O)=O)cc1` | 10.37 |
| `CS(=O)(=O)CCNC(=O)c1ccc2c(c1)CCCC2` | -4.726 |
| `COCc1noc(CN(C(C)C)C(C)C)n1` | -3.715 |
| `CNC(=O)C1CNC1` | 0.513 |
| `NC(=O)Nc1cccc(C(=O)Nc2ccc(Cl)cn2)c1` | -1.245 |
| `O=C(Nc1n[nH]c(C2CCC2)n1)c1cc(F)ccc1F` | -17.28 |
| `CC(N)C(=O)Nc1ccc(Cl)cc1` (stereo unspecified) | 5.191 |
| `Nc1ccc(C(=O)N2C[C@H](O)[C@@H](N3CCCC3)C2)cn1` | 6.564 |
| `NS(=O)(=O)c1ccc(NC(=O)COC(=O)C2CC2)cc1` | -10.11 |
| `CN1CCC[C@@H]1CN1CCN(C(=O)c2ccc[nH]2)CC1` | -3.25 |
| `CC(=O)c1cc(CN(C)CC2CC(=O)N(C)C2)n(C)c1` (stereo unspecified) | -13.72 |
| `CN1Cc2ccccc2CC1=O` | -6.86 |
| `Cn1cc(CC(=O)Nc2ccc(I)cn2)cn1` | -1.266 |
| `CCC(=O)NCC(=O)N1CCn2cccc2C1C` (stereo unspecified) | -3.347 |
| `CCC[C@H]1CN(C(=O)c2scnc2C)C[C@@H]1N` | -3.217 |
| `CCN1CCCC1CNC(=O)Nc1ccc(OC)cc1` (stereo unspecified) | 10.6 |
| `CS(=O)(=O)N(CC(N)=O)c1cc(C(F)(F)F)ccc1Cl` | 10.34 |
| `CC1CCC(N(C)C(=O)c2ccn(C)c(=O)c2)CC1` (stereo unspecified) | -18.23 |
| `C=C(C)CN1CCN(c2ccccn2)CC1` | 13.01 |
| `CNC(=O)Nc1ccc(OC)c(OCCOC)c1` | -0.6468 |
| `CCC(C)C(=O)NCc1cccnc1N1CCOCC1` (stereo unspecified) | -1.873 |
| `CN(C(=O)c1cccnc1)C1CCc2ccccc21` (stereo unspecified) | -3.825 |
| `O=C1N[C@H]2CCC[C@@H]1CN(Cc1ccsc1)C2` | -3.541 |
| `Cc1ccc(NC(=O)C2CC(=O)N=C(N)S2)cc1Cl` (stereo unspecified) | 20.35 |
| `CC(N)c1nnc2ccccn12` (stereo unspecified) | 17.22 |
| `O=C(NCC1CCNCC1)c1coc2ccccc12` | -7.454 |
| `CN(C)c1ccc(C(=O)NCc2ccccc2F)cn1` | -2.76 |
| `CC(C)CC(O)C(=O)NCc1cc2ccccc2[nH]1` (stereo unspecified) | 10.32 |

Repeated from the top, 7 entries:

compound,percent effect
COc1cc2c(c(OC)c1OC)CC(N)CCC2 (stereo unspecified),-5.172
CCn1cc(S(=O)(=O)NCC2CCN(C3CC3)C2)cn1 (stereo unspecified),3.955
NC(=O)c1cnn(-c2ccccn2)c1N,-18.11
Cn1nc(N2CCCC2)c(=O)n(C)c1=O,-11.31
CCc1cc(N2CCCC(CN)C2)n2nccc2n1 (stereo unspecified),8.07
Cn1cncc1CCNC(=O)c1ccc(C#N)cc1,-2.258
NCCc1ncccc1F,27.89

From ChEMBL document CHEMBL3988442, “University of Dundee, Small-Polar-MMV Screening Library” (2021).